The list shows a part of the results. These are further read-outs of the screen, such as a control signal, another cell line or another target. No call is given for them. Most of these compounds were active or inconclusive in the main read-out, so they are no random draw. Potencies come from curve fits of mixed quality, noted in brackets.
Assay: qHTS Assay to Find Inhibitors of Chronic Active B-Cell Receptor Signaling
Conditions: ABC-DLBCL IkBa-CBG/CBR reporter, luminescence ratio (green luciferase fused to IkBa over red control in TMD8 lymphoma cells), 4 h
Procedure, shortened: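 Doxycycline induced both beetle luciferases in TMD8 lymphoma cells; IKK-driven degradation limits the IkappaBalpha-fused green signal, while red luminescence normalises for cell number and nonspecific effects. Compounds tested up to 46 uM, 4 hrs.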

[1] = measured here: CBR red luminescence, cell number
[2] = measured here: IkBa-CBG green luminescence

Structure (SMILES) | AC50 [1] | AC50 [2]
Cc1ccc(NC(=O)/C=C/c2ccco2)cc1F | 10 µM [falling, partial curve, poor fit] | –
CCc1nnc(NC(=O)CSc2ccc(-c3ccc(F)cc3)nn2)s1 | 7.08 µM [rising, partial curve, poor fit] | –
CC(C)N1CCC(=NNc2ccc([N+](=O)[O-])cc2S(=O)(=O)N2CCOCC2)CC1 | 8.91 µM [rising, partial curve, poor fit] | –
S=C(Nc1ccc(Cl)cc1Cl)NC1CCN(Cc2ccccc2)CC1 | 29.1 µM [falling, single point] | –
CCOc1nc2ccccc2cc1C=O | 14.1 µM [rising, single point] | –
Cn1cnc([N+](=O)[O-])c1Sc1ccc(C(C)(C)C)cc1 | 12.6 µM [falling, single point] | –
CC1(C)CC(=O)C(C=Nc2ccc3cn[nH]c3c2)=C(O)C1 | 14.1 µM [falling, partial curve] | 11.2 µM [falling, partial curve, poor fit]
O=C1N2CCCc3cccc(c32)C12Nc1ccccc1S2 (centres undefined) | 2.31 µM [rising, single point] | –
CC(C)Sc1nc2ccc(Br)cc2[nH]1 | 3.16 µM [rising, full curve, poor fit] | –
CN(C)C=NC1=NN(c2cccc(C(F)(F)F)c2)CC1 | 23.1 µM [rising, single point] | –
O=C(Nc1ccc2oc(=O)ccc2c1)c1cccnc1 | 13 µM [falling, partial curve] | –
COc1cc2c(cc1NC(=O)c1ccncc1)oc1ccccc12 | 18.4 µM [falling, single point] | –
Nc1ccc(C(=O)Nc2nccs2)cc1 | 22.4 µM [falling, partial curve, poor fit] | –
COc1cc(/C=C(\C#N)c2ccccn2)cc(OC)c1O | 0.112 µM [falling, full curve, poor fit] | –
Cc1c(C(=O)Nc2ccc(Oc3ccccc3)cc2)sc2nc3n(c(=O)c12)CCC3 | 35.5 µM [falling, single point] | –
Cn1nnnc1Sc1ncnc2scc(-c3ccccc3)c12 | 13 µM [falling, single point] | –
COc1ccc(C)cc1N(C(=O)c1ccccc1)c1nc2ccccc2s1 | 23.1 µM [falling, single point] | –
COc1ccccc1-c1cc(C(=O)N2CCCc3ccccc32)no1 | 20 µM [falling, partial curve, poor fit] | –
CCOC(=O)N1CCC2(CC1)C(C#N)=C(N)Oc1c2c(C)nn1-c1cccc(Cl)c1 | 8.2 µM [falling, partial curve, poor fit] | –
CCC(=O)Nc1ccc(NC(=O)CSc2nc3c(c(=O)n(C)c(=O)n3C)n2CC)cc1 | 20 µM [rising, single point] | 10 µM [falling, partial curve, poor fit]
COc1ccc(C2=NOC(C(=O)NCc3cccs3)C2)cc1 (centres undefined) | 16.4 µM [falling, partial curve, poor fit] | –
O=C(O)CC(NS(=O)(=O)Cc1ccccc1)c1cccc([N+](=O)[O-])c1 (centres undefined) | 3.16 µM [rising, single point] | –

14 of the compounds above, in CSV form.
Structure (SMILES),AC50 [1],AC50 [2]
CCc1nnc(NC(=O)CSc2ccc(-c3ccc(F)cc3)nn2)s1,"7.08 µM [rising, partial curve, poor fit]",–
CC(C)N1CCC(=NNc2ccc([N+](=O)[O-])cc2S(=O)(=O)N2CCOCC2)CC1,"8.91 µM [rising, partial curve, poor fit]",–
S=C(Nc1ccc(Cl)cc1Cl)NC1CCN(Cc2ccccc2)CC1,"29.1 µM [falling, single point]",–
CCOc1nc2ccccc2cc1C=O,"14.1 µM [rising, single point]",–
Cn1cnc([N+](=O)[O-])c1Sc1ccc(C(C)(C)C)cc1,"12.6 µM [falling, single point]",–
CC1(C)CC(=O)C(C=Nc2ccc3cn[nH]c3c2)=C(O)C1,"14.1 µM [falling, partial curve]","11.2 µM [falling, partial curve, poor fit]"
O=C1N2CCCc3cccc(c32)C12Nc1ccccc1S2 (centres undefined),"2.31 µM [rising, single point]",–
CC(C)Sc1nc2ccc(Br)cc2[nH]1,"3.16 µM [rising, full curve, poor fit]",–
CN(C)C=NC1=NN(c2cccc(C(F)(F)F)c2)CC1,"23.1 µM [rising, single point]",–
O=C(Nc1ccc2oc(=O)ccc2c1)c1cccnc1,"13 µM [falling, partial curve]",–
COc1cc2c(cc1NC(=O)c1ccncc1)oc1ccccc12,"18.4 µM [falling, single point]",–
Nc1ccc(C(=O)Nc2nccs2)cc1,"22.4 µM [falling, partial curve, poor fit]",–
COc1cc(/C=C(\C#N)c2ccccn2)cc(OC)c1O,"0.112 µM [falling, full curve, poor fit]",–
Cc1c(C(=O)Nc2ccc(Oc3ccccc3)cc2)sc2nc3n(c(=O)c12)CCC3,"35.5 µM [falling, single point]",–

Another view of two compounds above:
Structure (SMILES)	AC50 [1]	AC50 [2]
CC1(C)CC(=O)C(C=Nc2ccc3cn[nH]c3c2)=C(O)C1	14.1 µM [falling, partial curve]	11.2 µM [falling, partial curve, poor fit]
Nc1ccc(C(=O)Nc2nccs2)cc1	22.4 µM [falling, partial curve, poor fit]	–

Later entries.

Structure (SMILES) | AC50 [1] | AC50 [2]
CN(CC(=O)Nc1ccccc1Br)C(=O)CNC(=O)c1ccc(Oc2ccccc2)cc1 | 35.5 µM [falling, single point] | –
COC(=O)CNC(=O)CN1C(=O)N(c2cccc(Cl)c2)C(N(O)C(=O)Nc2cccc(Cl)c2)C1(C)C (centres undefined) | 35.5 µM [falling, single point] | –
C=CCOc1nc2sc(C)c(C)c2c(=O)n1-c1ccccc1 | 11.2 µM [rising, partial curve, poor fit] | –
C/C(=N\Nc1ncc(Cl)cc1Cl)c1ccc(N2CCOCC2)cc1 | 35.5 µM [falling, single point] | 20 µM [falling, single point]
COc1ccc(/C=N/Nc2ccc([N+](=O)[O-])cc2)cc1Cn1cc([N+](=O)[O-])cn1 | 6.51 µM [rising, partial curve, poor fit] | –
CCN(CC(=O)Nc1ccc(NC(C)=O)cc1)C(=O)CCCc1nc2ccccc2s1 | 20.6 µM [falling, single point] | –
Cc1cc(Br)cnc1NC(=S)Nc1ccc(F)cc1F | 20 µM [rising, partial curve, poor fit] | –
O=S(=O)(CCc1nc2ccccc2o1)c1ccc(Cl)cc1 | 2.06 µM [rising, single point] | –
Nc1ccccc1Oc1ccc2ccccc2c1 | 35.5 µM [rising, single point] | –
Cc1ccc(SSc2cc(C)ccc2N)c(N)c1 | 29.1 µM [rising, single point] | 20.6 µM [falling, single point]
COC(=O)N1C(=O)[C@](c2ccc(OC)cc2)(C(C)C)N1C(=O)OC | 10 µM [falling, partial curve, poor fit] | –
O=C(c1cc(=O)[nH]c2ccccc12)N1CC=C(c2ccccc2)CC1 | 8.2 µM [rising, partial curve, poor fit] | –
COc1ccc(NC(=O)c2cc3c([nH]c4ccccc43)c(C)n2)cc1 | 2.91 µM [falling, partial curve, poor fit] | –
COc1ccccc1-c1cc(C(=O)N2CCN(c3ccc(F)cc3)CC2)no1 | 3.98 µM [falling, full curve] | –
Cc1cc2c(C)nc(N/N=C/c3ccccc3)nc2o1 | 13 µM [falling, partial curve] | –
S=c1[nH]ncn1/N=C/c1cccc(Oc2ccccc2)c1 | 25.9 µM [rising, partial curve, poor fit] | 23.1 µM [falling, single point]
CCCOc1ccc(C(=O)O)cc1 | 35.5 µM [falling, single point] | –
Cc1cc(C)cc(NC(=O)NNC(=O)c2cc3occc3[nH]2)c1 | 35.5 µM [falling, single point] | –
CC1CN/C(=C\C(=O)c2ccc(Cl)cc2)C(=O)N1 (centres undefined) | 3.66 µM [falling, partial curve] | –
COc1cccc(-c2nnc(NC(=O)c3ccc4ncsc4c3)o2)c1 | 2.06 µM [falling, full curve] | –
COc1ccccc1-c1nnc(SCc2ccccn2)n1C | 1.46 µM [rising, partial curve] | –
C=CCNc1nc(-c2ccc(Cl)cc2)cs1 | 31.6 µM [falling, single point] | –

Structure (SMILES) | AC50 [1] | AC50 [2]
CCC1=C(OC(=O)N(CC)CC)N2C(=O)OC(=NCCOC)[C@]2(Cc2ccccc2)[C@H]2C1=CC[C@H]1C(=O)N(CC)C(=O)[C@H]12 | 35.5 µM [rising, single point] | –
Cc1cccc(OCCCC(=O)Nc2ccc(N3CCOCC3)cc2)c1 | 0.164 µM [rising, full curve, poor fit] | –
Cc1nn(C(=O)CCCn2cc([N+](=O)[O-])cn2)c(C)c1Cl | 0.794 µM [rising, full curve, poor fit] | –
COc1ccc(Cl)cc1NC(=O)C(=O)NC1CCCCCC1 | 0.058 µM [falling, full curve] | –
Cn1nccc1C(=O)NC1CCCc2c1cnn2-c1ccccc1F (centres undefined) | 12.6 µM [rising, single point] | –
COC(=O)c1c(C)[nH]c(C(=O)OCC(=O)c2ccc(C)s2)c1C | 16.4 µM [falling, partial curve, poor fit] | –
Cc1c(C(=O)O)sc2[nH]c(=O)n(Cc3ccccc3)c(=O)c12 | 6.31 µM [falling, single point] | –
COC(=O)c1cc(N=Nc2c(C)[nH]c3ccccc23)cc(C(=O)OC)c1 | 0.112 µM [rising, full curve, poor fit] | –
COc1ccccc1-c1cc(C(=O)Nc2cc(C)on2)no1 | 2.51 µM [falling, full curve] | –
COC(=O)c1c(NC(=O)CSc2nnc(-c3ccco3)n2Cc2ccccc2)sc(C)c1C | 29.1 µM [falling, single point] | –
C[C@]12C(=O)N(c3ccc(Cl)cc3)C(=O)N1[C@H]1c3ccccc3OC[C@@H]1[C@H]2c1ccccc1 | 6.31 µM [falling, full curve, poor fit] | –
CCOC(=O)[C@H]1[C@H]2COc3ccc(C)cc3[C@@H]2N2C(=O)c3cc(F)c(F)cc3NC(=O)[C@@]12C | 23.1 µM [falling, single point] | –
O=C(OCc1ccccc1)/C(=C/c1cccc(Br)c1)NC(=O)c1ccco1 | 35.5 µM [falling, single point] | –
Cc1cc(C(=S)N2CCOCC2)c(C)n1-c1ccc(F)cc1 | 22.4 µM [falling, single point] | –
COc1cc2ccccc2cc1C(=O)N(CCN(C)C)c1nc2c(C)cccc2s1 | 20 µM [falling, single point] | –
CCN(CC)CCNc1ncnc2c1sc1nc(N3CCCC3)c3c(c12)CC(C)(C)OC3 | 35.5 µM [falling, single point] | –
Nc1nc2ccc(C(=O)NC3CCCCC3)cc2s1 | 14.1 µM [falling, single point] | –
NC(=O)N/N=C/c1c(O)ccc2oc3c(c12)CCCC3 | – | 12.6 µM [rising, partial curve, poor fit]
CCC(=O)N1CCN(c2nc3ccccc3s2)CC1 | 18.4 µM [rising, single point] | –
O=C(Nc1ccc(F)cc1)/C(Cl)=C/c1ccccc1 | 5.62 µM [falling, partial curve] | –

Source: PubChem BioAssay AID493014 (National Center for Advancing Translational Sciences (NCATS), 2011)
